Our source for the binding values is PMC4140012.

By UniProt entry, the sequences of proteins in these tests, tags left out. Where a name states a change or a piece, a line headed by the entry shows the natural chain unless it says otherwise.
UniProt Q8IQ27: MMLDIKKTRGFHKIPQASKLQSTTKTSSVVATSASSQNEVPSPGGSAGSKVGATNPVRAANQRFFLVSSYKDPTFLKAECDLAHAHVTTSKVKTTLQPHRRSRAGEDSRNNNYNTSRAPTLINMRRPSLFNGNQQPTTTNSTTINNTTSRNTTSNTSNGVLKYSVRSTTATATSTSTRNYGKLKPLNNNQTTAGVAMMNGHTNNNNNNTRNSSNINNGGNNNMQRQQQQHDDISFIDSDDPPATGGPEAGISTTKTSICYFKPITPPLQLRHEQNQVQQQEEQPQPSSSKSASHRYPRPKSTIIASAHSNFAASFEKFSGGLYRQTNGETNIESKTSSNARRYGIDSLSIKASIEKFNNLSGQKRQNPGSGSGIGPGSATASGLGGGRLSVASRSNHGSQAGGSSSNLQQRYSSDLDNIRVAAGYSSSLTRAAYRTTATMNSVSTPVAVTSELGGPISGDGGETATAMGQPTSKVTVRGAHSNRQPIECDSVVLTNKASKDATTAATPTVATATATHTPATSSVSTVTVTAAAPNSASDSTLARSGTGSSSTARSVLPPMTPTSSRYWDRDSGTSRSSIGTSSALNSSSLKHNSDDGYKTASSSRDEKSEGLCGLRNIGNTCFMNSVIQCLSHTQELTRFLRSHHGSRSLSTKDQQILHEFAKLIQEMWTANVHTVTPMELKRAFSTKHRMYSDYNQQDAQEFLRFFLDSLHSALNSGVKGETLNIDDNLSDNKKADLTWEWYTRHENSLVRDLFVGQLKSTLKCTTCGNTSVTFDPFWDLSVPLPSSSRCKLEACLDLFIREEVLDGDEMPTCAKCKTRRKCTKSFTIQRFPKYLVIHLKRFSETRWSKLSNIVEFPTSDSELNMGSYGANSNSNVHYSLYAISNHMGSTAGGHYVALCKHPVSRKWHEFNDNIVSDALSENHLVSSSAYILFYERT
UniProt O18413: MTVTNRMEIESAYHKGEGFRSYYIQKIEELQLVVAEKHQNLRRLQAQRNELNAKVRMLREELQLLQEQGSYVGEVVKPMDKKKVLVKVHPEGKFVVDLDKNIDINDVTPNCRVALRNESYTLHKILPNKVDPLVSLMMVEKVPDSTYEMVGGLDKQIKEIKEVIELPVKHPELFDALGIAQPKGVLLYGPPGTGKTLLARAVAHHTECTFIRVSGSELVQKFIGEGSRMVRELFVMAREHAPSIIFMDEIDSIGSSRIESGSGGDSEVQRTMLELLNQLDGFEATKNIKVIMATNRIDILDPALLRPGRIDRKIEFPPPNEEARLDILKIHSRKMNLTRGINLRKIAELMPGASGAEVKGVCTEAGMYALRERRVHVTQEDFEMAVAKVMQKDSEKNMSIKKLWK

For assay [1], the target named is T1, V5-tagged Imd full length (Drosophila) (UniProt Q7K4Z4).
T1 sequence: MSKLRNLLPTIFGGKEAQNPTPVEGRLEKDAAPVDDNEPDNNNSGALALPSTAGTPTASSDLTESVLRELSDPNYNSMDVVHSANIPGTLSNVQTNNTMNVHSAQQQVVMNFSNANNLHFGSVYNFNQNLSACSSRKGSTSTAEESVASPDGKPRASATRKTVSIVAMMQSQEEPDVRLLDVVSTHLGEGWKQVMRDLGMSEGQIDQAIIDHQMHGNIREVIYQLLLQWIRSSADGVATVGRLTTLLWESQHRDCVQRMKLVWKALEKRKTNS
The experiment in a line: co-IP; S2 cells cotransfected with USP2-Myc and V5-tagged Imd full length or truncated constructs; lysates precipitated with anti-V5 or anti-Myc, blotted with anti-Myc or anti-V5.

Assay [2] concerns the target Myc tagged full length USP2 (Drosophila) (UniProt Q8IQ27). The experiment in a line: co-IP; S2 cells cotransfected with pAc-USP2-Myc and either pAc-Imd or a control empty plasmid; anti-Myc IP, blot for endogenous Pros45.

No constants are given. Whether binding was seen depends on the method and setting. In cells and extracts the contact can be indirect. A result given as binding can be weak or reduced; the word gives no strength. For some assays here: Sequences can lack the tags named with a protein.

With “Myc tagged full length USP2 (from UniProt Q8IQ27-2) (enzyme)”, the binding result in assay [1] is on record as “binds”.

Consider “proteasomal subunit 8 (Pros45) (from UniProt O18413 1-405)”, for which, in assay [2], the binding entry is “binds”.
